Measurements as given in the supplement of paper PMC4604168 (melanoma cell lines).
Some of the results follow. Many values rest on one well or one pass, so single values are uncertain.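 Cells were imaged in 1,536-well plates, and nuclei stained with an antibody against cleaved PARP were counted against all DNA-stained nuclei to give the apoptosis fraction. Screening doses were chosen to leave most cells alive, and resting and induced cleaved-PARP levels differ strongly between cell lines.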

What follows are compounds tested on RPMI7951 (assay: cleaved PARP positive nuclei fraction relative to DMSO control; melanoma cells; higher = more apoptosis). Details: library dose: low library concentration; 72 h.
`CO[C@H]1C[C@@H]2CC[C@@H](C)[C@@](O)(O2)C(=O)C(=O)N2CCCC[C@H]2C(=O)O[C@H]([C@H](C)C[C@@H]2CC[C@@H](OCCO)[C@H](OC)C2)CC(=O)[C@H](C)/C=C(\C)[C@@H](O)[C@@H](OC)C(=O)[C@H](C)C[C@H](C)/C=C/C=C/C=C/1C` [everolimus] + Cn1cc(/C=C2\C(=O)Nc3cccnc32)c2ccccc21 [GW441756] (first compound 0.02 µM, partner dose 0.4 µM) was tested, and the “cleaved PARP positive nuclei fraction” value was 146%.
In the case of `CO[C@H]1C[C@@H]2CC[C@@H](C)[C@@](O)(O2)C(=O)C(=O)N2CCCC[C@H]2C(=O)O[C@H]([C@H](C)C[C@@H]2CC[C@@H](OCCO)[C@H](OC)C2)CC(=O)[C@H](C)/C=C(\C)[C@@H](O)[C@@H](OC)C(=O)[C@H](C)C[C@H](C)/C=C/C=C/C=C/1C` [everolimus] + Cn1c(Nc2ccc(C(F)(F)F)cc2)nc2cc(Oc3ccnc(-c4ncc(C(F)(F)F)[nH]4)c3)ccc21 [CHIR265] (first compound 0.02 µM, partner dose 0.08 µM), the “cleaved PARP positive nuclei fraction” value is reported as 131%.
`CO[C@H]1C[C@@H]2CC[C@@H](C)[C@@](O)(O2)C(=O)C(=O)N2CCCC[C@H]2C(=O)O[C@H]([C@H](C)C[C@@H]2CC[C@@H](OCCO)[C@H](OC)C2)CC(=O)[C@H](C)/C=C(\C)[C@@H](O)[C@@H](OC)C(=O)[C@H](C)C[C@H](C)/C=C/C=C/C=C/1C` [everolimus] + COc1cc2ncnc(Nc3ccc(Oc4ccccc4)cc3)c2cc1OC [SrcI1] (first compound 0.02 µM, partner dose 2 µM) was tested, and the “cleaved PARP positive nuclei fraction” value was 134%.
In the case of `CO[C@H]1C[C@@H]2CC[C@@H](C)[C@@](O)(O2)C(=O)C(=O)N2CCCC[C@H]2C(=O)O[C@H]([C@H](C)C[C@@H]2CC[C@@H](OCCO)[C@H](OC)C2)CC(=O)[C@H](C)/C=C(\C)[C@@H](O)[C@@H](OC)C(=O)[C@H](C)C[C@H](C)/C=C/C=C/C=C/1C` [everolimus] + CN(NC(=O)CC(=O)NN(C)C(=S)c1ccccc1)C(=S)c1ccccc1 [STA4783] (first compound 0.02 µM, partner dose 0.006 µM), the “cleaved PARP positive nuclei fraction” value is reported as 104%.
For `CO[C@H]1C[C@@H]2CC[C@@H](C)[C@@](O)(O2)C(=O)C(=O)N2CCCC[C@H]2C(=O)O[C@H]([C@H](C)C[C@@H]2CC[C@@H](OCCO)[C@H](OC)C2)CC(=O)[C@H](C)/C=C(\C)[C@@H](O)[C@@H](OC)C(=O)[C@H](C)C[C@H](C)/C=C/C=C/C=C/1C` [everolimus] + CCCCCCCCCCCC1=C(O)C(=O)C=C(O)C1=O [Embelin] (first compound 0.02 µM, partner dose 1.2 µM), the “cleaved PARP positive nuclei fraction” value was 80.9%.
`CO[C@H]1C[C@@H]2CC[C@@H](C)[C@@](O)(O2)C(=O)C(=O)N2CCCC[C@H]2C(=O)O[C@H]([C@H](C)C[C@@H]2CC[C@@H](OCCO)[C@H](OC)C2)CC(=O)[C@H](C)/C=C(\C)[C@@H](O)[C@@H](OC)C(=O)[C@H](C)C[C@H](C)/C=C/C=C/C=C/1C` [everolimus] + COC(=O)c1sccc1S(=O)(=O)Nc1ccc(Nc2ccccc2)cc1OC [GSK0660] (first compound 0.02 µM, partner dose 1 µM) was tested, and the “cleaved PARP positive nuclei fraction” value was 152%.
In the case of `CO[C@H]1C[C@@H]2CC[C@@H](C)[C@@](O)(O2)C(=O)C(=O)N2CCCC[C@H]2C(=O)O[C@H]([C@H](C)C[C@@H]2CC[C@@H](OCCO)[C@H](OC)C2)CC(=O)[C@H](C)/C=C(\C)[C@@H](O)[C@@H](OC)C(=O)[C@H](C)C[C@H](C)/C=C/C=C/C=C/1C` [everolimus] + C[C@@H]1CCN(C(=O)CC#N)C[C@@H]1N(C)c1ncnc2[nH]ccc12 [CP690550] (first compound 0.02 µM, partner dose 1 µM), the “cleaved PARP positive nuclei fraction” value is reported as 56.1%.
For `CO[C@H]1C[C@@H]2CC[C@@H](C)[C@@](O)(O2)C(=O)C(=O)N2CCCC[C@H]2C(=O)O[C@H]([C@H](C)C[C@@H]2CC[C@@H](OCCO)[C@H](OC)C2)CC(=O)[C@H](C)/C=C(\C)[C@@H](O)[C@@H](OC)C(=O)[C@H](C)C[C@H](C)/C=C/C=C/C=C/1C` [everolimus] + Oc1cc(-c2nc(-c3ccccc3)[nH]c2-c2ccncc2)ccc1Cl [L779450] (first compound 0.02 µM, partner dose 0.2 µM), the “cleaved PARP positive nuclei fraction” value was 177%.
For `CO[C@H]1C[C@@H]2CC[C@@H](C)[C@@](O)(O2)C(=O)C(=O)N2CCCC[C@H]2C(=O)O[C@H]([C@H](C)C[C@@H]2CC[C@@H](OCCO)[C@H](OC)C2)CC(=O)[C@H](C)/C=C(\C)[C@@H](O)[C@@H](OC)C(=O)[C@H](C)C[C@H](C)/C=C/C=C/C=C/1C` [everolimus] + Cn1cncc1[C@@](N)(c1ccc(Cl)cc1)c1ccc2c(c1)c(-c1cccc(Cl)c1)cc(=O)n2C [tipifarnib] (first compound 0.02 µM, partner dose 0.01 µM), the “cleaved PARP positive nuclei fraction” value was 123%.
In the case of `CO[C@H]1C[C@@H]2CC[C@@H](C)[C@@](O)(O2)C(=O)C(=O)N2CCCC[C@H]2C(=O)O[C@H]([C@H](C)C[C@@H]2CC[C@@H](OCCO)[C@H](OC)C2)CC(=O)[C@H](C)/C=C(\C)[C@@H](O)[C@@H](OC)C(=O)[C@H](C)C[C@H](C)/C=C/C=C/C=C/1C` [everolimus] + NCC(=O)Nc1ccc(-n2nc(C(F)(F)F)cc2-c2ccc3c(ccc4ccccc43)c2)cc1 [OSU03012] (first compound 0.02 µM, partner dose 1 µM), the “cleaved PARP positive nuclei fraction” value is reported as 33.9%.
`CO[C@H]1C[C@@H]2CC[C@@H](C)[C@@](O)(O2)C(=O)C(=O)N2CCCC[C@H]2C(=O)O[C@H]([C@H](C)C[C@@H]2CC[C@@H](OCCO)[C@H](OC)C2)CC(=O)[C@H](C)/C=C(\C)[C@@H](O)[C@@H](OC)C(=O)[C@H](C)C[C@H](C)/C=C/C=C/C=C/1C` [everolimus] + NC(=O)Nc1cc(-c2cccc(F)c2)sc1C(=O)N[C@H]1CCCNC1 [AZD7762] (first compound 0.02 µM, partner dose 0.02 µM) was tested, and the “cleaved PARP positive nuclei fraction” value was 203%.
With `CO[C@H]1C[C@@H]2CC[C@@H](C)[C@@](O)(O2)C(=O)C(=O)N2CCCC[C@H]2C(=O)O[C@H]([C@H](C)C[C@@H]2CC[C@@H](OCCO)[C@H](OC)C2)CC(=O)[C@H](C)/C=C(\C)[C@@H](O)[C@@H](OC)C(=O)[C@H](C)C[C@H](C)/C=C/C=C/C=C/1C` [everolimus] + O=C(Nc1ccccc1)c1cc([N+](=O)[O-])ccc1Cl [GW9662] (first compound 0.02 µM, partner dose 2 µM) the “cleaved PARP positive nuclei fraction” value was 83.9%.
For `CO[C@H]1C[C@@H]2CC[C@@H](C)[C@@](O)(O2)C(=O)C(=O)N2CCCC[C@H]2C(=O)O[C@H]([C@H](C)C[C@@H]2CC[C@@H](OCCO)[C@H](OC)C2)CC(=O)[C@H](C)/C=C(\C)[C@@H](O)[C@@H](OC)C(=O)[C@H](C)C[C@H](C)/C=C/C=C/C=C/1C` [everolimus] + O=C1NC(=O)/C(=C/c2ccc(-c3ccc(F)cc3O)o2)S1 [AS252424] (first compound 0.02 µM, partner dose 1 µM), the “cleaved PARP positive nuclei fraction” value was 50.7%.
For `O=C(O)[C@@H]1[O][Sb](=[O])([O][Sb]2(=[O])[O][C@H]([C@H](O)CO)[C@H](O)[C@H](C(=O)O)[O]2)[O][C@H]([C@H](O)CO)[C@@H]1O` (stereo partly drawn) [stibogluconate] + Clc1ccc(Nc2nnc(Cc3ccncc3)c3ccccc23)cc1 [vatalanib] (first compound 2 µM, partner dose 2 µM), the “cleaved PARP positive nuclei fraction” value was 42.5%.
`CO[C@H]1C[C@@H]2CC[C@@H](C)[C@@](O)(O2)C(=O)C(=O)N2CCCC[C@H]2C(=O)O[C@H]([C@H](C)C[C@@H]2CC[C@@H](OCCO)[C@H](OC)C2)CC(=O)[C@H](C)/C=C(\C)[C@@H](O)[C@@H](OC)C(=O)[C@H](C)C[C@H](C)/C=C/C=C/C=C/1C` [everolimus] + O=C(CCCCCCC(=O)Nc1ccccc1)NO [vorinostat] (first compound 0.02 µM, partner dose 0.08 µM) was tested, and the “cleaved PARP positive nuclei fraction” value was 147%.
For `CO[C@H]1C[C@@H]2CC[C@@H](C)[C@@](O)(O2)C(=O)C(=O)N2CCCC[C@H]2C(=O)O[C@H]([C@H](C)C[C@@H]2CC[C@@H](OCCO)[C@H](OC)C2)CC(=O)[C@H](C)/C=C(\C)[C@@H](O)[C@@H](OC)C(=O)[C@H](C)C[C@H](C)/C=C/C=C/C=C/1C` [everolimus] + Clc1ccc(Nc2nnc(Cc3ccncc3)c3ccccc23)cc1 [vatalanib] (first compound 0.02 µM, partner dose 2 µM), the “cleaved PARP positive nuclei fraction” value was 162%.
`CO[C@H]1C[C@@H]2CC[C@@H](C)[C@@](O)(O2)C(=O)C(=O)N2CCCC[C@H]2C(=O)O[C@H]([C@H](C)C[C@@H]2CC[C@@H](OCCO)[C@H](OC)C2)CC(=O)[C@H](C)/C=C(\C)[C@@H](O)[C@@H](OC)C(=O)[C@H](C)C[C@H](C)/C=C/C=C/C=C/1C` [everolimus] + O=C(O)c1ccc2c(c1)nc(Nc1cccc(Cl)c1)c1ccncc12 [CX4945] (first compound 0.02 µM, partner dose 0.4 µM) was tested, and the “cleaved PARP positive nuclei fraction” value was 70.2%.
`CO[C@H]1C[C@@H]2CC[C@@H](C)[C@@](O)(O2)C(=O)C(=O)N2CCCC[C@H]2C(=O)O[C@H]([C@H](C)C[C@@H]2CC[C@@H](OCCO)[C@H](OC)C2)CC(=O)[C@H](C)/C=C(\C)[C@@H](O)[C@@H](OC)C(=O)[C@H](C)C[C@H](C)/C=C/C=C/C=C/1C` [everolimus] + CNC(=O)c1cc(Oc2ccc(NC(=O)Nc3ccc(Cl)c(C(F)(F)F)c3)cc2)ccn1 [sorafenib] (first compound 0.02 µM, partner dose 0.4 µM) was tested, and the “cleaved PARP positive nuclei fraction” value was 67.9%.
